Assay results reported in US8653235B2 (Kwansei Gakuin Educational Foundation, priority 2010, dated 2014).

Assay: general procedure: Fmoc solid-phase peptide synthesis; Fmoc-Cys(Trt)-Trt(2-Cl) resin (2-chlorotrityl chloride resin, 0.70 mmol/g); HBTu/HOBt
Details: oxidative folding step, trifluoroacetic acid salt, then desalinized

With “CGSIEQSC (cysteine pairing not given here)” the “final HPLC purity” value was 98.2%.

Ends that are not written are not given here.
